We go through 42 sequences from paper PMC7819943, “Rice protein-binding microarrays: a tool to detect cis-acting elements near promoter regions in rice”.

Chains of the proteins cited; added tags and fusions are not shown.
UniProt Q0JBA9, entry or part of it: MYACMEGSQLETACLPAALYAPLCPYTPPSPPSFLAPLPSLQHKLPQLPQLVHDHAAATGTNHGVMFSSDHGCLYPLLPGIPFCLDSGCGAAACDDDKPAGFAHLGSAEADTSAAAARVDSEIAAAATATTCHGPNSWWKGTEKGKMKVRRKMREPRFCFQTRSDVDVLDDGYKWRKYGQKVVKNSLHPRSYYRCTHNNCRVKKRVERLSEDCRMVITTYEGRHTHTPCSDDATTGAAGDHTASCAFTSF

The list shows a part of the results.

For the test, the target named is OsWRKY34 (Oryza sativa, UniProt Q0JBA9 1-250). As to the kind of experiment: protein-binding microarray (RPBM); PBS, 2% BSA, 51.3 ng/ul salmon testes DNA, 50 uM zinc acetate, 200 nM TF, 25 C, 1 h; high values mean tight binding. The conditions noted are these: protein: recombinant; tags: N-terminal polyhistidine and DsRed monomer fusion (pET32a); label: CyDye5-dUTP incorporated in the synthesized complementary strand; 3' TTTTT single-stranded linker to array surface; dsDNA, one strand shown. The essentials: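 The binding signal is fluorescence intensity per feature, in arbitrary units, read on an Axon 4000B scanner. Polyhistidine- and DsRed-tagged transcription factors (N-terminal fusions) from E. coli BL21-CodonPlus were purified on Ni–NTA and applied at 200 nM for 1 h at 25 °C to a double-stranded, BSA-blocked custom Agilent array in buffer with 50 µM zinc acetate.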
Regarding “TCTTTCATAGTTTCATTCATACTTCTTTTCAACTAGCTTTCGGAGTCACCTAGTGCAG”, the binding signal was 8400 fluorescence intensity (a.u.).

As to “AACGGTGGGAGTAATGTTTTTCTCGGTTGCAAACAACTTTCGGAGTCACCTAGTGCAG”, the binding signal is 8100 fluorescence intensity (a.u.).

As for “TTGTCGCTGCGCCTGCGTCCGATTCACCGTCGCGCCGCCGCGGAGTCACCTAGTGCAG”, the binding signal was 9570 fluorescence intensity (a.u.).

Turning to “AATTCTATATTCCATGCTCGTTACTGGGTTTCAGTTGACACGGAGTCACCTAGTGCAG”, the binding signal was 8140 fluorescence intensity (a.u.).

In the case of “GACTACGCTTAATACTTCAAATATATATCCGTATATCCGACGGAGTCACCTAGTGCAG”, the binding signal was 8070 fluorescence intensity (a.u.).

Turning to “CTTAATTTGCCAGCTGCTTGTGTGTTCTCCTTGCCGATCCCGGAGTCACCTAGTGCAG”, the binding signal is 12200 fluorescence intensity (a.u.).

In the case of “TTACATTACTCCGCCCGCTGCGGCGAGGATTCCCTCGATCCGGAGTCACCTAGTGCAG”, the binding signal was 8590 fluorescence intensity (a.u.).

“GACGGATTGCTTTGTGCATTGTCAATCAGTACATCCTCTTCGGAGTCACCTAGTGCAG”: the binding signal was 8030 fluorescence intensity (a.u.).

Turning to “TGATTATCGTTATTGACCTCCTTTTGGTCTCGCGCCCACTCGGAGTCACCTAGTGCAG”, the binding signal was 9810 fluorescence intensity (a.u.).

For “AGCCCATCTCGGACATATCTCCGGCCTACTTAGCCCATCACGGAGTCACCTAGTGCAG”, the binding signal was 9050 fluorescence intensity (a.u.).

In the case of “TCTTTCGGTGTCCTATAGCAAATTTTGCCATGTATGAATTCGGAGTCACCTAGTGCAG”, the binding signal was 8680 fluorescence intensity (a.u.).

For the sequence “AAACCAGCGACACGTTCCTGTCTTCCTCATATTTACTAAACGGAGTCACCTAGTGCAG”, the binding signal was 8540 fluorescence intensity (a.u.).

Regarding “TGATCTCCGTCCACCTGCCGGCCTGGGCGCACACCGCGCCCGGAGTCACCTAGTGCAG”, the binding signal is 11400 fluorescence intensity (a.u.).

Consider “TGTTTGGTGCACCTTTTTTTTCAAACCTTGTAATTTTGGACGGAGTCACCTAGTGCAG”, for which the binding signal is 8950 fluorescence intensity (a.u.).

As to “TGCTCTTACGGTCATTCCTTTTCCGTAGCATTGGCCCAAACGGAGTCACCTAGTGCAG”, the binding signal was 8060 fluorescence intensity (a.u.).

As for “TCCCTCCAGGACATTTTTTTTCTTTAAGCTAGCTTATGGACGGAGTCACCTAGTGCAG”, the binding signal is 9190 fluorescence intensity (a.u.).

“TCATTTAAATTTCTTCCTATTTTATCCTCAACTACCATTTCGGAGTCACCTAGTGCAG”: the binding signal is 9010 fluorescence intensity (a.u.).

On to “AACACCACCACTGATCATCACTAGCTTTCTACTTGTAGAACGGAGTCACCTAGTGCAG”, for which the binding signal was 12400 fluorescence intensity (a.u.).

As for “GCCAAAGTTTCACCCGTTCATACACTTATCCCATATAAAACGGAGTCACCTAGTGCAG”, the binding signal is 8200 fluorescence intensity (a.u.).

As to “CTCCCCATCAGTCGCCGCGCCACCGCCCCATCGATCTCCGCGGAGTCACCTAGTGCAG”, the binding signal is 12400 fluorescence intensity (a.u.).

On to “GACGTTTGATGTCGCGGTTCCGGTATTTACATAGTATGGGCGGAGTCACCTAGTGCAG”, for which the binding signal is 9810 fluorescence intensity (a.u.).

For the sequence “CAATCCGGTCATTTCACATCAGCATCCGTGTACAGATATTCGGAGTCACCTAGTGCAG”, the binding signal was 10300 fluorescence intensity (a.u.).

Turning to “CACCAATTCCGTCTTTCCTCTGCGTGCAAATTCCGTCTTCCGGAGTCACCTAGTGCAG”, the binding signal is 8740 fluorescence intensity (a.u.).

Turning to “GGGTTCTTATATGGAAACTTCTTTCAATATTGCTTATTTTCGGAGTCACCTAGTGCAG”, the binding signal was 8300 fluorescence intensity (a.u.).

Consider “AAGTAGAGTGGACATTTCTTTTTTTCCTTTTCAATCTTCCCGGAGTCACCTAGTGCAG”, for which the binding signal is 8890 fluorescence intensity (a.u.).

In the case of “ATTCTCTATATATTCAACTGTTGGGCCGTCCACTACATCTCGGAGTCACCTAGTGCAG”, the binding signal was 8370 fluorescence intensity (a.u.).

For “TCCAGACACACATAGCCACTCCGTCACAATTTCGGCGTCGCGGAGTCACCTAGTGCAG”, the binding signal is 11000 fluorescence intensity (a.u.).

As for “TTTCTCAACTCGATCCATCTCTCTCTCTCTCTCGATCTCTCGGAGTCACCTAGTGCAG”, the binding signal is 10500 fluorescence intensity (a.u.).

For “TGTAACTACAACCGCTGTGTTTTTTTCACATAATATCTTTCGGAGTCACCTAGTGCAG”, the binding signal is 10900 fluorescence intensity (a.u.).

Consider “CGCTTCTGCCACGTCGCTCTCCCCGATGCGTTCTTATCCCCGGAGTCACCTAGTGCAG”, for which the binding signal is 8060 fluorescence intensity (a.u.).

As for “CCATCCCATCACTTGCTTCCCTTGCAAACGCAACCAACAACGGAGTCACCTAGTGCAG”, the binding signal was 8600 fluorescence intensity (a.u.).

Turning to “AATTACTATATGTATATTTACAGTTAAATTTGTTATTTTTCGGAGTCACCTAGTGCAG”, the binding signal was 9040 fluorescence intensity (a.u.).

Take “TGTGTGTATGATAAATGGGTCCCGCTTGTATTTTTTTTATCGGAGTCACCTAGTGCAG”: the binding signal is 13500 fluorescence intensity (a.u.).

As for “GCCTGTTCTTCAATTTGCCGCCGGCGCCGGCTTCGGCTTGCGGAGTCACCTAGTGCAG”, the binding signal was 8110 fluorescence intensity (a.u.).

As for “CCACTGCGCCACCGTCTCCTTCCCGCACCACGCGCGCGCCCGGAGTCACCTAGTGCAG”, the binding signal is 8390 fluorescence intensity (a.u.).

“GCAAATCTCAACATAGGCTAGCTTCTTAGTGCACTTGCTTCGGAGTCACCTAGTGCAG”: the binding signal was 9760 fluorescence intensity (a.u.).

Take “CACCCACCAAGTACTCTTTTTACTTTTACCACAGCGCATACGGAGTCACCTAGTGCAG”: the binding signal is 9050 fluorescence intensity (a.u.).

As to “GTTTCAATTATTTGACATCCAACCCCACTTTTATTCACTTCGGAGTCACCTAGTGCAG”, the binding signal is 10400 fluorescence intensity (a.u.).

For “CGAAATGTTTGACGTCGTTGACTTTTTAGCACATGTTTAACGGAGTCACCTAGTGCAG”, the binding signal is 22800 fluorescence intensity (a.u.).

Regarding “TCCCAACACCTCTCCATCGTTTTCCGCGTGTACGCTTTTCCGGAGTCACCTAGTGCAG”, the binding signal is 11500 fluorescence intensity (a.u.).

As to “GCCGTTGACTTTTTATCCAACGTTTGATCATTCGTCTTATCGGAGTCACCTAGTGCAG”, the binding signal is 40800 fluorescence intensity (a.u.).

For “CAAAATCCTTTTTCTTTTTTTCATTTTTTCTGTGCTTTTTCGGAGTCACCTAGTGCAG”, the binding signal was 8680 fluorescence intensity (a.u.).
